No constants are given. Whether binding was seen depends on the method and setting. In cells and extracts the contact can be indirect. Here binding means that the protein was enriched with, or labelled near, the bait; the list need not be complete. Where a sequence is shown, tags or fusion partners need not be part of it.
Each substance was assayed against T1, Flag-CREG1 (cellular repressor of E1A-stimulated genes 1) (chicken) (UniProt Q5ZJ73) (assay: affinity purification with mass spectrometry; lysate (1000 μg) of Flag-CREG1 overexpressing DF-1 cells under viral infection; Flag antibody or IgG control with protein A/G beads overnight at 4 °C; 10% SDS-PAGE, silver staining, LC-MS/MS).
T1 sequence: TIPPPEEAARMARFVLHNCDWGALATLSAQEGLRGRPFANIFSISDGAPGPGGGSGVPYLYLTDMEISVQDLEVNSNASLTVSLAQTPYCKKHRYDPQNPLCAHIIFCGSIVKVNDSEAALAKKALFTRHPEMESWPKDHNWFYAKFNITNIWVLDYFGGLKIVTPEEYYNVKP

Protein sequences, listed by entry. Tags and fused reporters are not part of them.
UniProt Q5ZMN3: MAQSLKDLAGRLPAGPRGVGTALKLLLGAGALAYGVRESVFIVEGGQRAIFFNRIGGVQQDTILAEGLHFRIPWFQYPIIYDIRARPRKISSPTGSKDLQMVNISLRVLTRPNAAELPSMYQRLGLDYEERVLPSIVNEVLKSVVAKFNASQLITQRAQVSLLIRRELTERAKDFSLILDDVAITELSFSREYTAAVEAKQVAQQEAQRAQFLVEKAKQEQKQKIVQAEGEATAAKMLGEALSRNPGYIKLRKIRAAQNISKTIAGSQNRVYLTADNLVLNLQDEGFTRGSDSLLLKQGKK

binding, binds:
PHB2 (from UniProt Q5ZMN3 1-301)
SLC25A3 (chicken (endogenous in DF-1))
SLC25A4 (chicken (endogenous in DF-1))

Reference: article PMC12867876
